Where a protein sequence is shown, tags need not be part of it. For at least one entry, the source does not settle the construct or the ends of the probe. For some of these results: At least one verdict rests on a figure or table, not on a statement of the authors.
Assays:
[1] = biological target: NupR (NagR2) (Bacillus thuringiensis BMB171) (UniProt A0A0G3E6K4); assay: EMSA; details: 10 mM Tris-HCl pH 7.5, 50 mM NaCl, 0.5 mM DTT, 4% glycerol, 200 ng poly(dI-dC) in 10 uL, 25 C, 30 min; 6% native PAGE in 0.5x TBE; recombinant protein; protein details: His; label: Cy5; flanks not given
[2] = system: NupR (NagR2) (Bacillus thuringiensis BMB171); assay: EMSA; details: NupR: 10 mM Tris-HCl pH 7.5, 50 mM NaCl, 0.5 mM DTT, 4% glycerol, 200 ng poly(dI-dC), 25 C 30 min, ComK/CcpA/PurR: 10 mM Tris-HCl pH 8.0, 50 mM KCl, 10 mM EDTA, recombinant protein, residues 1-248, protein details: His, label: Cy5, probe letters rebuilt from the primers and the genome

Row | Sequence | binding result [1] | other results
1 | AAAGGTCAGACATCTTACGT (double strand) [BMB171_RS01930] | binds | 
2 | AAAGGTCTGATATCATTCTT (double strand) [BMB171_RS26765] | binds | 
3 | AATAGTAAGACATCAAACCT (double strand) [BMB171_RS26950] | binds | 
4 | AATGGTCAGACGTCATTCGT (double strand) [BMB171_RS25245] | binds | 
5 | AATGGTCAGACGTTCAACGT (double strand) [BMB171_RS25250] | binds | 
6 | ACAGGTCTGACGTCTATCGT (double strand) [BMB171_RS20290] | binds | 
7 | AGAAGTAAGACGTATTATCT (double strand) [BMB171_RS09485] | binds | 
8 | AGTGGTAAGACCTATTAAAA (double strand) [BMB171_RS27155] | binds | 
9 | AGTGGTATGACAACTCAAAA (double strand) [BMB171_RS26735] | binds | 
10 | ATATGTGAATCCTCCACTTCTCCCACAAGTTATTGGTCGTATAACGTATAACGAATGACGTCTGACCATTGTTGTTAAAAAATTTAAAACCCCTAAAACTATTCAACTGTCATCTAAAATCAGTAAGCGTTTACATAAATTGCAATTTATAAAAGGTAGCTTCTTCTCTCCTACCATACTTGAAAGTCTGAAATTGATACCACCTACAAATCAAATTGTAAGCGTTATCTAGACGAAATGCAATATAAATTTTAAAAGATTTTCATATGTTAATATATTCCTAATTAATTGGTTTTTTCATGTAAATTTACCATGAAAATAGCCC (double strand) [nupC2 promoter] |  | binding result [2]: binds
11 | ATTGGTAAGATGTCAAACAT (double strand) [BMB171_RS00930] | binds | 
12 | CGAAGTAAGACAACTGACGA (double strand) [BMB171_RS26545] | binds | 
13 | CGACCTCTGATGTAAGACTT (double strand) [BMB171_RS18795] | binds | 
14 | CGGACGATGTTACCTCATATATACTTGATAATATGGATCGAGAGTTTCTACCCGGCAACCTTAAATTGCTGGACTATGGGGAAAACTAATGAATATTAGCCTATGCGCAAAAAAGGACTCATATTGATTAGCTTTCTCTCATAGATGAAAGTGAATCCATATGGGTCTTTTTTTATTTTTATTTTTCTAAAAGGTCAGACATCTTACGTATGACATAAAACCTCATTCCTTTATTTTTAGTAATATAACGAGCGTTTTATGTACAAACTTTATACGAACTTCTGAAAGGGGCAACTACATGCAATATGTAATGAGCATTATCGG (double strand) [nupC1 promoter] |  | binding result [2]: binds
15 | GCTATGAGTTCAACAATTACTCCCTTTCCCCTAGCTTCCCTCTACAAAAATAATGTATCTATTCTTCCATTTCATACACTTTATTCTGCAAAAACAATCCATAACGTTATCATAATGTATATATTCCCATAAAAAACATAACCTATTTCATGTCTATTTATTTCATATGTGTTTTTTTGAAGAATTTTCTTTTTATTTAAACTTTTCATTAGACGTTTGACCTCCGATGTCCATTATGATAAGTTACTTAAGATGTTATATTCGTAAACGTATAGACAACTGGTTTATACACTGTTTTTACTATGAGGAAGGAGCATACACTGCATGAATC (double strand) [nupC4 promoter] |  | binding result [2]: binds
16 | GGAGGTCAAACGTCTAATGA (double strand) [BMB171_RS26110] | binds | 
17 | GGTATAATGAAAAGGGCATCAAGTGAAACTTGATGCTCTTTTTTGTTTTATTCAACTATTTGCAGATAGTAAAAGACGAACATTCGTAGACGTTTTATAATAAAATGTAATTTTTTAAAGAAAAGTGCGGATATGATTTGTGATTTGTGTTAGAATGGAAAATGCCTTTGAAATAAGAGGTTTTATGATCTTTCCTATCCGATTGAAGATTTTGGGGGAGAAATGGAAAGTTCGGATTATTTCTTGTTTTGAATGGTCAGACGTTCAACGTTAATGAAGAGTTAAATGGAGGATTTTATTAATGAAGTTTGTTATGTTCCTTGTAGG (double strand) [nupC3 promoter] |  | binding result [2]: binds
18 | TCTTTTCTCTTTTTTCAACTTACAACATAGTACAAATGACTAAACACCAAAATAAGTGTAATTGTCGAATAAATAATAATAATTTTTTAAAATAAAATTTTCACTCTTTATTGCATAAAAAAAACTTTGCACCATAAACATTCCTCATTTCGAGAAAAAGTTCGGCACAAAGATCCTTTACATCCTTTGTTACACACTTTTCCCCTCATAGTCTAGCAATTCATGGTTGCCAGGTAGAAACTTATGGACCTTATCTCCAAGATTATATGAGGCAGTGATTCTTTTCGAAGTAATCTTACCACTTGCTCTCATACGTGTCAACAAAATCTAACATTTTTCTGCATTAAATATCGAACATTTACATAAAACATACTCAAAGTATTCGTATTCTAAAGGGCACCCCTAAATGTAAGCCCTTTCTTTATCGCTGAGTATAGTATATAACAAAAACACTATATAAAAAAGCCTAATTGTAAAAACAATTAGGCTTTTTTTAAGAACTTTTTTCTTGTACATCATTAATGAGTACTTCTCTCGGCCATGGCCCTATAGTGATCGTATTA (double strand) [nupR-p14] |  | binding result ([2]; Zn2+ then EDTA): binds; binding result ([2]; no added metal): binds
